Test results published in PubChem BioAssay AID1671190 (National Center for Advancing Translational Sciences (NCATS), 2021).
In all, about 580,000 compounds went through this assay and about 6,100 (1.1%) were called active. Inconclusive results, whose numbers are uncertain, are shown with a selection of clear calls. The call rests on the fitted dose curve; in most records, active means well fitted inhibition curve with a large enough effect; inconclusive means small, poorly fitted or top-dose-only effect, or another doubt; inactive means no such curve, though single readings can be large or run the other way. Potencies of inconclusive entries are doubtful fits and often do not repeat.

Chains of the proteins cited; added tags and fusions are not shown. Lines headed by an entry give the natural chain unless they say otherwise; changes in a name come on top.
UniProt P18054: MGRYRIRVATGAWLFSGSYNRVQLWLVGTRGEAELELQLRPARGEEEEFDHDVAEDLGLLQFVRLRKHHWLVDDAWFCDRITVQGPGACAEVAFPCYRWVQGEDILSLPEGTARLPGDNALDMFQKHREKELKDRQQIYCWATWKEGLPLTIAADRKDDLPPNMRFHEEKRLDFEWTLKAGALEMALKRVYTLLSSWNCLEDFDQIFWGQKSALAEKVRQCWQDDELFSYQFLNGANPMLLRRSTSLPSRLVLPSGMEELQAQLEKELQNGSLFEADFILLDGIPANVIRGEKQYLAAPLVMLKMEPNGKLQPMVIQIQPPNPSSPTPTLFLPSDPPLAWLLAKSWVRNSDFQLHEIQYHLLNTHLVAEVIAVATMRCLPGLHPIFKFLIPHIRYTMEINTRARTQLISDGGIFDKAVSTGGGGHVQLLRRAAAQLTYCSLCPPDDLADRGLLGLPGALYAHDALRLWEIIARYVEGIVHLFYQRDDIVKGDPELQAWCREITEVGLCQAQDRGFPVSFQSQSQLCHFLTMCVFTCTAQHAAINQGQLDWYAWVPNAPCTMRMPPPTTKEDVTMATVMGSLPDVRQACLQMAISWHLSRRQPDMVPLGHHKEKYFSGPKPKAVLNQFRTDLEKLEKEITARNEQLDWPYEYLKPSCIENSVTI

The compounds below were run against Polyunsaturated fatty acid lipoxygenase ALOX12 (Homo sapiens) (UniProt P18054) (assay: Primary qHTS assay for inhibitors of human arachidonate 12S-lipoxygenase (ALOX12): Round 2). Details: purified 12hLO, xylenol orange hydroperoxide absorbance; activity change, negative = inhibition: at 108 µM (top of the series) unless noted.
Summary of the method: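 Hydroperoxide product was detected by ferrous iron/xylenol orange as the 573 to 405 nm absorbance ratio. Arachidonic acid at 40 uM (final) was turned over for 30 min at room temperature by 150 nM human 12hLO, pH 7.0 Hepes buffer, after 15 min compound preincubation.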
On the % scale 0 is the no-effect control and ±100 the full control effect; potency means the concentration at half of the fitted maximal effect.

Row | SMILES | activity change, negative = inhibition | Potency
1 | CC(=O)N1CCC(N2C[C@@H]3OCC(=O)N(CC(N)=O)[C@@H]3C2)CC1 | inactive: 58.8% [at 176 µM] | 
2 | Clc1cccc(-c2ccc(C=Nc3ccc(N4CCOCC4)cc3)o2)c1 |  | inconclusive: 56.2 µM [inhibitor, partial curve, poor fit]
3 | CC(C)C[C@H](NC(=O)CCn1nnc2ccccc2c1=O)C(=O)O | inactive: -11.5% | 
4 | CCc1c(C)sc(NC(=O)C2CCCO2)c1C#N (configuration not stated) |  | inconclusive: 158 µM [inhibitor, single point]
5 | CC(=O)Nc1ccccc1O |  | inactive
6 | COCCN1Cc2cccc(C(=O)Nc3cc(OC)ccc3OC)c2C1=O | inactive: -8.75% | 
7 | CN(c1ccc(O)cc1)c1nc(O)c(C2=c3ccccc3=NC2=O)s1 |  | inconclusive: 39.8 µM [inhibitor, partial curve, poor fit]
8 | O=C1NC[C@H](CCCCN2C[C@H](Cc3ccccc3)N(Cc3ccccc3)C(=O)C2=O)N(CCc2ccccc2)C1=O |  | inconclusive: 158 µM [inhibitor, partial curve, poor fit]
9 | COc1ccccc1CCNC(=O)C1(C)CC1(Cl)Cl (configuration not stated) |  | inconclusive: 100 µM [inhibitor, partial curve, poor fit]
10 | Cc1ccc(OCCC(=O)OCC(=O)NCc2ccccc2)cc1 |  | inconclusive: 35.5 µM [inhibitor, partial curve, poor fit]
11 | NN1C(=O)/C(=C\c2ccco2)SC1=S |  | inconclusive: 126 µM [inhibitor, single point]
12 | COc1ccc2cc3cc(C(=O)NCC4COc5ccccc5O4)oc3nc2c1 (configuration not stated) | inactive: -21.2% | 
13 | CCCNC(=O)NCc1nc(-c2ccc(OCC)cc2)oc1C |  | inconclusive: 50.1 µM [inhibitor, partial curve, poor fit]
14 | COc1ccc(OCCOC(=O)CCS(=O)(=O)c2ccc(C)cc2)cc1 |  | inconclusive: 50.1 µM [inhibitor, partial curve, poor fit]
15 | O=C(NCCN1CCN(c2ccccc2)CC1)c1cccc(Br)c1 | inactive: -11.2% | 
16 | Cc1ccc[n+](/C(C(=S)NCc2ccco2)=C(/[O-])c2ccccc2Cl)c1 | inactive: 0% | 
17 | CCCc1ccc(-c2c(C)sc(NC(=O)c3ccc(C)s3)c2C#N)cc1 | inactive: -15.4% | 
18 | c1ccc2c(c1)ccc1nnnn12 |  | inconclusive: 112 µM [inhibitor, single point]
19 | Fc1ccccc1-c1nc(NCC2CC2)nc2ccsc12 |  | inconclusive: 39.8 µM [inhibitor, partial curve, poor fit]
20 | COc1c(Cl)cc(Cl)cc1/C=C(\C#N)c1nc2ccc(C)cc2[nH]1 |  | inconclusive: 141 µM [inhibitor, partial curve, poor fit]
21 | CC(=O)c1c(N2CCN(Cc3ccccc3)CC2)nc(=S)n(-c2ccccc2)c1C |  | inconclusive: 56.2 µM [inhibitor, partial curve, poor fit]

Row | SMILES | activity change, negative = inhibition | Potency
22 | Cc1cc(NC(=O)c2ccc3nc(N4CCCCC4)sc3c2)ccc1Br |  | inconclusive: 28.2 µM [inhibitor, full curve, poor fit]
23 | Cc1cccc(NC(=O)C2CCN(c3nc4ccccc4o3)CC2)c1C | inactive: -16.8% | 
24 | COC(=O)c1sc(N2C(=O)c3oc4ccccc4c(=O)c3C2c2ccc(O)cc2)nc1C (configuration not stated) |  | inconclusive: 50.1 µM [inhibitor, partial curve, poor fit]
25 | COc1cc(N2C(=O)c3ccccc3C2=O)c(Cl)cc1C(=O)OCC(=O)NCc1ccco1 | inactive: 79.4% | 
26 | O=C(c1ccc(S(=O)(=O)N2CCCCC2)cc1)N1CCN(c2ccccc2)CC1 |  | inconclusive: 35.5 µM [inhibitor, partial curve, poor fit]
27 | O=C(NCc1ccccc1)C(c1ccncc1)n1c(=O)c(-c2cc3ccccc3[nH]2)nc2ccccc21 (configuration not stated) |  | inconclusive: 100 µM [inhibitor, partial curve, poor fit]
28 | CC(C)Cc1ccc(C(C)C(=N)N)cc1 (configuration not stated) |  | inconclusive: 112 µM [inhibitor, single point]
29 | Cc1ccc2oc(=O)n(CCC(=O)NC3CCCN(c4ncccn4)C3)c2c1 (configuration not stated) | inactive: 44.9% | 
30 | CCOc1cccc(C(=O)Nc2cccc(-c3nnc(-c4ccc(C)cc4)o3)c2)c1 |  | inconclusive: 126 µM [inhibitor, single point]
31 | Cc1c(C)[n+](=O)c2cc(F)c(F)cc2n1[O-] |  | inconclusive: 8.91 µM [inhibitor, partial curve, poor fit]
32 | COc1ccc(NC(=S)NC(NC(=O)c2cccc(C)c2)C(Cl)(Cl)Cl)c([N+](=O)[O-])c1 (configuration not stated) |  | inconclusive: 8.91 µM [inhibitor, partial curve]
33 | CC(C)Oc1ncnc2c1[nH]c1ccccc12 | inactive: 0% | 
34 | Cc1noc(C)c1S(=O)(=O)NC(=O)C1(C)CCN1C(=O)Cc1ccc(Cl)cc1Cl (configuration not stated) |  | inconclusive: 100 µM [inhibitor, single point]
35 | Cc1ccc(C(C[N+](=O)[O-])c2c(-c3ccccc3O)[nH][nH]c2=O)cc1 (configuration not stated) |  | active: 39.8 µM
36 | COc1ccc(C(NC(=O)C(C)C)c2c(O)ccc3ccccc23)cc1 (configuration not stated) | inactive: -24.6% | 
37 | Cc1cc(NC(=O)CSc2nc3c(cc2C#N)CCC3)no1 |  | inconclusive: 100 µM [inhibitor, single point]
38 | C/C(=N/NC(=S)NC(C)C)c1ccc(Cl)cc1 |  | inconclusive: 50.1 µM [inhibitor, partial curve, poor fit]
39 | COc1ccc(Cn2cc(CN3CC(N4CCN(C5CCN(C)CC5)CC4)CS3(=O)=O)nn2)cc1 (configuration not stated) |  | inconclusive: 8.91 µM [inhibitor, full curve]
40 | Cc1nc(NC(=O)c2c(-c3ccccc3)c(-c3ccccc3)nn(C)c2=O)sc1C |  | inconclusive: 126 µM [inhibitor, partial curve, poor fit]
41 | CCN(CC)S(=O)(=O)c1ccc(NC(=O)COC(=O)c2c[nH]c(=O)[nH]c2=O)cc1 |  | inconclusive: 35.5 µM [inhibitor, partial curve, poor fit]
42 | CCN1CCN(C(c2ccc(SC)cc2)c2c(O)cc(C)n(Cc3ccco3)c2=O)CC1 (configuration not stated) |  | inconclusive: 50.1 µM [inhibitor, partial curve, poor fit]

A draw from above in order of SMILES length, falling:
Row | SMILES | activity change, negative = inhibition | Potency
27 | O=C(NCc1ccccc1)C(c1ccncc1)n1c(=O)c(-c2cc3ccccc3[nH]2)nc2ccccc21 (configuration not stated) |  | inconclusive: 100 µM [inhibitor, partial curve, poor fit]
39 | COc1ccc(Cn2cc(CN3CC(N4CCN(C5CCN(C)CC5)CC4)CS3(=O)=O)nn2)cc1 (configuration not stated) |  | inconclusive: 8.91 µM [inhibitor, full curve]
30 | CCOc1cccc(C(=O)Nc2cccc(-c3nnc(-c4ccc(C)cc4)o3)c2)c1 |  | inconclusive: 126 µM [inhibitor, single point]
